# Experimental data from patent publication US20140093513A1, “METHODS OF LOWERING PROPROTEIN CONVERSATE SUBTILISIN/KEXIN TYPE 9 (PCSK9)” (Catabasis Pharmaceuticals, Inc., priority 2012, published 2014).
# System: ApoE3Leiden mice
# Assay: Plasma cholesterol and triglycerides in ApoE3Leiden mice on Western type diet, 2 and 4 weeks of treatment
# Type: in vivo
# Conditions: female APOE*3Leiden mice, WTD, I-8 0.75% w/w, atorvastatin 0.0015% w/w in diet
# Procedure: The study was conducted using female APOE*3Leiden mice (groups of each n=10) and one untreated reference control group on chow (n=5). To induce dyslipidemia, a high cholesterol Western type diet containing 1% cholesterol, 15% cacao butter, 40.5% sucrose and 1% corn oil (WTD) was fed to the mice for a total experimental period of 20 weeks (of which 4 weeks are a run-in period). To prevent oxidation of the test compound (I-8), 30 mg/kg alpha-tocopherol was added to the high cholesterol diets, i.e. also in the high cholesterol diet control.
# In the first 4 weeks (run-in period), a pro-atherogenic state of dyslipidemia characterized by elevated plasma cholesterol levels (about 15-20 mM) was induced in all mice by feeding them an atherogenic diet containing 1% cholesterol. The mice were then separated into a control group (no treatment) and three treatment groups: i) compound I-8, ii) atorvastatin and iii) compound I-8+atorvastatin as described below. The dyslipidemic mice were grouped on the basis of plasma cholesterol at t=0 assayed in 4 h fasting blood. Mice with low cholesterol after the run-in period were excluded so that homogenous experimental groups were obtained. A group of reference mice (n=5) remained on a chow diet during the complete study period (normolipidemic reference mice).
# The doses of the test compounds were as follows: • Compound I-8: 0.75% w/w in diet. • Atorvastatin: 0.0015% w/w in diet (to achieve about 20% reduction in plasma cholesterol). • Alpha-tocopherol: 0.0030% w/w in diet The test compounds, sufficient for approx. 3 kg of diet (i.e. 25 g of compound I-8), and alpha-tocopherol (>200 mg) were formulated before the start of the treatment period (t=0), by adding the test compounds to melted, hand warm cocoa butter and mixed for 5 min. This mix was then added to the master mix (containing the rest of the ingredients) and mixed thoroughly. The diet was frozen to −20° C. On the subsequent day, the diet was broken into small pellets (approx 5 g per piece) and freeze dried, and stored in vacuum sealed bags (approx 500 g) at −20° C. until use. […]
smiles,measurement,setting,value
"CC(C)c1c(C(=O)Nc2ccccc2)c(-c2ccccc2)c(-c2ccc(F)cc2)n1CC[C@@H](O)C[C@@H](O)CC(=O)O [atorvastatin, reference compound]",plasma cholesterol at t=2 weeks,"2 weeks of treatment, FIG. 4",statistically significant reduction
same,plasma cholesterol after 4 weeks of treatment,"4 weeks, FIG. 5",Comparable level of cholesterol reduction
same,plasma triglyceride levels after 4 weeks of treatment,"4 weeks, FIG. 6",failed to show a statistically significant change
